According to PMC5582647:
For at least one entry, the source does not settle the construct or the ends of the probe. Results from cells or extracts need not show a direct contact.

Sequences of proteins named here, by UniProt entry; tags and fusion partners are left off.
UniProt P63017, whole entry: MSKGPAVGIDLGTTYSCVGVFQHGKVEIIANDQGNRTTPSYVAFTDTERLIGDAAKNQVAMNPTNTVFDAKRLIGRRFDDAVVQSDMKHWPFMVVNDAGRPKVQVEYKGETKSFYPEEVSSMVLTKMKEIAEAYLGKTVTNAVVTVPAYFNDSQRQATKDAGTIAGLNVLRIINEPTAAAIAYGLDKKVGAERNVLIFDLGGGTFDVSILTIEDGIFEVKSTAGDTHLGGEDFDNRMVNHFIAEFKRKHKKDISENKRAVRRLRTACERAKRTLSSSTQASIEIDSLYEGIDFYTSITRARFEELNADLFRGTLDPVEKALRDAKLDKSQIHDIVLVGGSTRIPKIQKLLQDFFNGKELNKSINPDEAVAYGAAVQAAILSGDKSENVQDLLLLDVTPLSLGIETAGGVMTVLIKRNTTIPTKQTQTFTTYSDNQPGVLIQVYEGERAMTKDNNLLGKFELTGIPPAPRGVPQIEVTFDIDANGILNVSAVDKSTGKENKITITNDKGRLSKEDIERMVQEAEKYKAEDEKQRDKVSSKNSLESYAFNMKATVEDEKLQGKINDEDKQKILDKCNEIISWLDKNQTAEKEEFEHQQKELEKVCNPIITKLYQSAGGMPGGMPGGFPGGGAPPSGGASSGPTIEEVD

Target: heat shock cognate 71-kDa protein (HSPA8) (UniProt P63017)
Assay: pull-down from cell lysate with mass spectrometry
Settings: the KD of 2.5 nM (cited) is for whole Ehrlich cells, not for HSPA8, Pull-down buffer not given (protocol of Zamay et al.), cell experiments in DPBS with 0.9 mM CaCl2 and 0.49 mM MgCl2, aptamer heated at 95 C 10 min then ice 10 min, protein in an extract, single-stranded DNA

“CTCCTCTGACTGTAACCACGTCAATGGGTGATATATGCAGGTTACGCTGGCTAGTTGAAAGCATAGGTAGTCCAGAAGCC [As42 (AS42) aptamer]”: binds.
